{"sequences": {"note": "Amino acid sequences for entries named in this document (tags omitted). A change or cut given only in a name is not applied to a line headed by its entry.", "UniProt P18054": "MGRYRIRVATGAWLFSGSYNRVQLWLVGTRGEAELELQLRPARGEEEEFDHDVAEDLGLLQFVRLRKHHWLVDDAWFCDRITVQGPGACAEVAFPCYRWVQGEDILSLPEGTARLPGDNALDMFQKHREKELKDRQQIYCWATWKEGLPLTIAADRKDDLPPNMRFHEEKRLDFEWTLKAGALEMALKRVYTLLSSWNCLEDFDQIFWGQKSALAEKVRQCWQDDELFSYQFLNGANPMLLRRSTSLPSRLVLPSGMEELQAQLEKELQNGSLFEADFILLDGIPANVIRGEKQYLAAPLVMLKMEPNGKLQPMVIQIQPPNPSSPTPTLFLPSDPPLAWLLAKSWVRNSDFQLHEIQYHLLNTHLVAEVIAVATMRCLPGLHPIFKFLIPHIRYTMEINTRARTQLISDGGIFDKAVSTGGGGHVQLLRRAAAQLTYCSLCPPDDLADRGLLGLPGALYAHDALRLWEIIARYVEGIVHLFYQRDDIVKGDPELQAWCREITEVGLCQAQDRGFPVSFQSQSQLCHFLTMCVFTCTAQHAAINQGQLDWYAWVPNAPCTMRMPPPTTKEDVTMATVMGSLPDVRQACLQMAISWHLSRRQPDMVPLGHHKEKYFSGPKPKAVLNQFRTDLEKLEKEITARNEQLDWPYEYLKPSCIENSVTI"}, "source": "PubChem BioAssay AID1671190", "about": "(National Center for Advancing Translational Sciences (NCATS), 2021)", "note": "The campaign covered roughly 580,000 compounds. About 6,100 (1.1%) were called active. The shares of active, inactive and inconclusive entries below differ from those in the screen. Calls come from the whole dose curve; as a rule, active = well fitted inhibition curve with a large enough effect; inconclusive = small, poorly fitted or top-dose-only effect, or another doubt; inactive = no such curve, though single readings can be large or run the other way. A potency beside an inconclusive call is a rough fit, not a confirmed value. % is set by controls: 0 for no effect and ±100 for the full control effect; potency is the fitted concentration of half-maximal effect."}
{"target": "Polyunsaturated fatty acid lipoxygenase ALOX12 (Homo sapiens) (UniProt P18054)", "experiment": "Primary qHTS assay for inhibitors of human arachidonate 12S-lipoxygenase (ALOX12): Round 2", "details": "purified 12hLO, xylenol orange hydroperoxide absorbance; activity change, negative = inhibition: at 108 µM (top of the series) unless noted", "method_in_brief": "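Hydroperoxide product was detected by ferrous iron/xylenol orange as the 573 to 405 nm absorbance ratio. Arachidonic acid at 40 uM (final) was turned over for 30 min at room temperature by 150 nM human 12hLO, pH 7.0 Hepes buffer, after 15 min compound preincubation.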"}
{"smiles": "CCC(=O)N1CCc2cc(S(=O)(=O)CCC(=O)NCc3cccs3)ccc21", "Potency": "inconclusive: 28.2 µM [inhibitor, single point]"}
{"smiles": "COc1ccc(CNC(=O)CCC(=O)N2CC3CCCN3c3ccccc32)cc1", "note": "(stereo not given)", "Potency": "inconclusive: 112 µM [inhibitor, partial curve, poor fit]"}
{"smiles": "CCOc1ccccc1OCc1nn2c(C(C)(C)C)nnc2s1", "Potency": "inconclusive: 11.2 µM [inhibitor, partial curve, poor fit]"}
{"smiles": "COC(=O)CSc1nc(N2CCOCC2)c2c(c1C#N)CCCC2", "Potency": "inconclusive: 141 µM [inhibitor, single point]"}
{"smiles": "COC(=O)[C@@H]1Cc2c([nH]c3ccccc23)[C@H]2C[C@H](NCCNC(C)=O)C[C@@H](c3ccc(C)cc3)N21", "Potency": "inconclusive: 15.8 µM [inhibitor, full curve, poor fit]"}
{"smiles": "Cc1nc(NCCc2ccc(O)cc2)c2nnn(Cc3ccccc3)c2n1", "Potency": "inconclusive: 28.2 µM [inhibitor, partial curve, poor fit]"}
{"smiles": "Cc1ccccc1CNS(=O)(=O)c1csc(C(N)=O)c1", "Potency": "inconclusive: 141 µM [inhibitor, partial curve, poor fit]"}
{"smiles": "Cc1ccc(C)c(NC(=O)CN(C)C(=O)C2=NNC(=O)CC2)c1", "Potency": "inconclusive: 112 µM [inhibitor, single point]"}
{"smiles": "Cc1noc(NS(=O)(=O)c2ccc(NC(=O)C(C)C)cc2)c1C", "activity change, negative = inhibition": "inactive: 0%"}
{"smiles": "O=C(CCC(=O)N/N=C/c1ccccc1[N+](=O)[O-])N/N=C/c1ccccc1[N+](=O)[O-]", "activity change, negative = inhibition": "inactive: -11.1%"}
{"smiles": "CCCn1ncc(CNC2CC(=O)N(Cc3ccccc3C(F)(F)F)C2)c1C", "note": "(stereo not given)", "activity change, negative = inhibition": "inactive: 33.2%"}
{"smiles": "COCC1CCN(C(=O)c2cc(COc3ccc4ncccc4c3)on2)CC1", "activity change, negative = inhibition": "inactive: 3.3%"}
{"smiles": "CCOc1ccc(CCNC(=O)Cn2c(-c3nonc3N)nc3ccccc32)cc1OCC", "activity change, negative = inhibition": "inactive: -4.64%"}
{"smiles": "O=C(O)c1ccc(COc2ccc([N+](=O)[O-])cc2)o1", "Potency": "inconclusive: 112 µM [inhibitor, single point]"}
{"smiles": "Cc1ccc(C(C)C)c(OCC(=O)N2CCC(c3nc4ccccc4o3)CC2)c1", "Potency": "inconclusive: 100 µM [inhibitor, single point]"}
{"smiles": "O=C(COc1ccc(Cl)cc1)N(CCCN1CCOCC1)c1nc2ccccc2s1", "Potency": "inconclusive: 39.8 µM [inhibitor, partial curve, poor fit]"}
{"smiles": "CSCCC(NS(=O)(=O)c1ccc(Cl)cc1)C(=O)OCc1c(Cl)cccc1Cl", "note": "(stereo not given)", "Potency": "inconclusive: 44.7 µM [inhibitor, partial curve, poor fit]"}
{"smiles": "COc1ccccc1N1CCN(C(=O)c2cccc(C(=O)N3CCN(c4ccccc4OC)CC3)c2)CC1", "activity change, negative = inhibition": "inactive: 4.2%"}
{"smiles": "O=C(Nc1nc2c(s1)CCC2)C1CC(=O)N(c2n[nH]c3cccc(F)c23)C1", "note": "(stereo not given)", "Potency": "inconclusive: 44.7 µM [inhibitor, partial curve]"}
{"smiles": "O=C1NC(=O)C2(COC(c3cccc([N+](=O)[O-])c3)OC2)S1", "note": "(stereo not given)", "Potency": "inconclusive: 3.16 µM [inhibitor, full curve, poor fit]"}
{"smiles": "CCC[N+]1(CC#CC2(O)CCCCC2)CCOCC1", "Potency": "inconclusive: 50.1 µM [inhibitor, partial curve, poor fit]"}
{"smiles": "COc1cc(-c2n[nH]c(=S)n2/N=C/c2cccn2C)cc(OC)c1OC", "Potency": "inconclusive: 31.6 µM [inhibitor, partial curve, poor fit]"}
{"smiles": "CCN(Cc1ccncc1)C(=O)CC1CCCN(c2cnn(CCOC)c(=O)c2)C1", "note": "(stereo not given)", "Potency": "inconclusive: 17.8 µM [inhibitor, full curve, poor fit]"}
{"smiles": "COc1ccccc1C(=O)NC(=O)COC(=O)c1ccc(Br)o1", "Potency": "inconclusive: 126 µM [inhibitor, single point]"}
{"smiles": "O=C(O)c1ccccc1C(=O)NC[C@H]1Cn2c(-c3ccc(F)cc3)cnc2CO1", "activity change, negative = inhibition": "inactive: 58.4% [at 176 µM]"}
{"smiles": "COc1cc(OC)cc(C(=O)Nc2ccc(Nc3ccccc3)cc2)c1", "activity change, negative = inhibition": "inactive: 279%"}
{"smiles": "Cc1cccnc1Nc1nc(-c2ccc(O)c(O)c2)cs1", "Potency": "active: 2.82 µM"}
{"smiles": "CCOC(=O)c1c(NC(C)=O)sc2c(OCC(O)CNC(C)(C)C)c(Br)ccc12", "note": "(stereo not given)", "Potency": "inconclusive: 89.1 µM [inhibitor, single point]"}
{"smiles": "CSc1nc2ccccc2n1CC(=O)Nc1cc(C(F)(F)F)ccc1N1CCOCC1", "activity change, negative = inhibition": "inactive: 2.08%"}
{"smiles": "Cc1cc2nc(-c3cccc(Cl)c3)c(Cc3cccc(Cl)c3)n2c(C)c1Br", "Potency": "inconclusive: 35.5 µM [inhibitor, partial curve, poor fit]"}
{"smiles": "COCCCn1cc(CN(C)C2CN(Cc3cn(CCCOC)nn3)S(=O)(=O)C2)nn1", "note": "(stereo not given)", "Potency": "inconclusive: 14.1 µM [inhibitor, full curve]"}
{"smiles": "CN(CCCNC(=O)CCC[C@H]1NC[C@@H]2C[C@H]1CN(Cc1ccccc1)C2)C1CCCCC1", "Potency": "inconclusive: 39.8 µM [inhibitor, single point]"}
{"smiles": "CN1C(=O)/C(=C/c2coc3ccc(O)cc3c2=O)SC1=S", "activity change, negative = inhibition": "inactive: -13.1%"}
{"smiles": "CC(=O)Nc1ccc(NC2CCCCC2NS(=O)(=O)c2ccc(Cl)cc2)cc1", "note": "(stereo not given)", "Potency": "inconclusive: 44.7 µM [inhibitor, partial curve, poor fit]"}
{"smiles": "O=C(Cn1nnc(-c2ccc(F)cc2)n1)OCC(=O)c1ccccc1", "Potency": "inconclusive: 56.2 µM [inhibitor, partial curve, poor fit]"}
{"smiles": "COc1ccc(C(C(=O)Nc2c(C)cccc2C)n2c(=O)c(-c3ccco3)nc3ccccc32)cc1", "note": "(stereo not given)", "Potency": "inconclusive: 8.91 µM [inhibitor, full curve, poor fit]"}
{"smiles": "CCOC(=O)Cn1c(=O)c2c3c(sc2n(CCCN(C)C)c1=O)CCCC3", "activity change, negative = inhibition": "inactive: -32%"}
{"smiles": "Cn1c(=O)nc2n(-c3ccc(Cl)c(Cl)c3)c3cc(Cl)ccc3cc-2c1=O", "Potency": "inconclusive: 56.2 µM [inhibitor, partial curve, poor fit]"}
{"smiles": "CC1(C)CCC[C@]2(C)[C@H]3Cc4cc(O)ccc4O[C@]3(C)CC[C@@H]12", "Potency": "inconclusive: 112 µM [inhibitor, single point]"}
{"smiles": "Cc1ccc(C(=O)c2cc(C)sc2N)cc1", "Potency": "inconclusive: 89.1 µM [inhibitor, partial curve, poor fit]"}
{"smiles": "O=C(c1ccccc1)N1CCC(c2nn(-c3ccc(Cl)cc3)c(=O)[nH]2)CC1", "Potency": "active: 35.5 µM"}
{"smiles": "CC(CCc1ccccc1)NC(=O)C(=O)NCc1n[nH]c(=O)c2ccccc12", "note": "(stereo not given)", "activity change, negative = inhibition": "inactive: -0.935%"}
{"smiles": "COc1cc(/C=N/NC(N)=S)ccc1OCC(=O)Nc1ccc(C)cc1", "Potency": "inconclusive: 8.91 µM [inhibitor, partial curve, poor fit]"}
{"smiles": "COCCCN(C(=S)NC(=O)c1ccc(Br)cc1)c1c(N)n(Cc2ccccc2)c(=O)[nH]c1=O", "Potency": "inconclusive: 70.8 µM [inhibitor, partial curve, poor fit]"}
{"smiles": "O=C(Nc1c(C(=O)Nc2ccc(F)cc2)oc2ccccc12)c1ccccc1F", "activity change, negative = inhibition": "inactive: 0%"}
{"smiles": "CCN(CC)CCn1c(NCc2nc3ccccc3n2Cc2ccccc2)nc2ccccc21", "activity change, negative = inhibition": "inactive: 16.7%"}
{"smiles": "COc1ccc2oc(C(=O)OCC(=O)NCC3CCCO3)c(C)c2c1", "note": "(stereo not given)", "Potency": "inconclusive: 158 µM [inhibitor, single point]"}
{"smiles": "COc1ccc(NC(=O)c2cc(-c3ccco3)nc3ccccc23)cc1S(=O)(=O)N1CCOCC1", "activity change, negative = inhibition": "inactive: -3.28%"}
{"smiles": "CCN1C(=O)[C@H]2[C@H]3CN=C(SCc4ccc(C)cc4)N3[C@@](C)(C(=O)OC)[C@H]2C1=O", "Potency": "inconclusive: 14.1 µM [inhibitor, partial curve]"}
{"smiles": "COCC(=O)N[C@@H]1CN(C(=O)Cc2cccc(OC)c2)CC[C@@H]1c1nc(C)no1", "activity change, negative = inhibition": "inactive: 14.4%"}
{"smiles": "COc1cc(C=O)c([N+](=O)[O-])cc1OC", "Potency": "inconclusive: 28.2 µM [inhibitor, single point]"}
{"smiles": "Cc1ccc(Oc2ccc(-c3nc(N)nc(N)n3)cc2)cc1C", "Potency": "inconclusive: 126 µM [inhibitor, single point]"}
{"smiles": "COc1ccccc1CNC(=O)C1CCCN(c2nnc(-n3c(C)ccc3C)s2)C1", "note": "(stereo not given)", "activity change, negative = inhibition": "inactive: -7.32%"}
{"smiles": "COc1ccc(OCc2nc(C3CN(C(=O)c4sccc4C)C3)no2)cc1", "activity change, negative = inhibition": "inactive: 10.3%"}
{"smiles": "O=C(N[C@H]1C[C@H]2C(=O)NC[C@@H](CCC(=O)N3CCN(c4ccccn4)CC3)N2C1)c1ccccc1", "Potency": "inconclusive: 31.6 µM [inhibitor, partial curve, poor fit]"}
{"smiles": "CC(=O)N1CCc2cc(N=NC3=C(O)CCCC3=O)ccc21", "Potency": "inconclusive: 50.1 µM [inhibitor, partial curve, poor fit]"}
{"smiles": "COc1ccc(C(=O)N/N=C/c2ccc(OC)c(COc3ccccc3)c2)cc1", "activity change, negative = inhibition": "inactive: 5.77%"}
{"smiles": "COc1cc(O)c(C=NN2C(=O)CSC2=S)c(OC)c1", "Potency": "inconclusive: 25.1 µM [inhibitor, partial curve]"}
{"smiles": "O=S(=O)(Nc1ccncc1)c1ccccc1", "Potency": "inconclusive: 44.7 µM [inhibitor, partial curve, poor fit]"}
{"smiles": "CN(CC#CC1(C)CCCC(C)(C)O1)Cc1ccccc1", "note": "(stereo not given)", "Potency": "inconclusive: 31.6 µM [inhibitor, partial curve, poor fit]"}
{"smiles": "Cc1[nH]c2ccccc2c1CC(=O)Nc1ccc(Nc2cccnc2)c(-c2ccc(Cl)c(Cl)c2)c1", "Potency": "inconclusive: 89.1 µM [inhibitor, partial curve, poor fit]"}
{"smiles": "CCOC(=O)Nc1cc2c(C)cc(=O)oc2cc1C", "activity change, negative = inhibition": "inactive: 11.6%"}
{"smiles": "COc1cc(NC(=O)Cn2nc(C(F)(F)F)c3c2CCCC3)c(OC)cc1Cl", "Potency": "inconclusive: 44.7 µM [inhibitor, partial curve, poor fit]"}
{"smiles": "O=C1CCCC2=C1C(c1ccc(Br)cc1)c1c([nH]c(=S)[nH]c1=O)N2", "note": "(stereo not given)", "Potency": "inconclusive: 0.224 µM [inhibitor, full curve, poor fit]"}
{"smiles": "COC(=O)c1c(-c2ccc(C)cc2)csc1NC(=O)c1ccoc1C", "Potency": "inconclusive: 50.1 µM [inhibitor, partial curve, poor fit]"}
